# Test results as given in PubChem BioAssay (EPA / NIEHS).
# This list was built around the results that the source calls inconclusive (neither active nor inactive); the mix of calls is not that of the screen. For part of these data: Where the call is inconclusive, the potency comes from a doubtful curve fit. Calls of active or inactive are those of the source. How the source made its calls: active means hit-call score of the fitted dose curve at least 0.9, where 1 is the maximum; inconclusive means response in the unintended direction; inactive means score below 0.9.
# Experiments:
# [1] = read-out: sulfotransferase (SULT2A), SULT2A1 (gene 6822); assay: CLD_SULT2A_48hr: CellzDirect (CLD) Gene Expression Assay for sulfotransferase (SULT2A) at 48 hours (AID 2283710);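 further: hits raise SULT2A1 transcript above the 0.2% DMSO vehicle baseline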
# Method in brief: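 SULT2A1 transcript measured by qNPA chemiluminescence in human primary hepatocyte cultures after 48 h, with fresh dosing solutions on two consecutive days; gain-of-signal fitting against 0.2% DMSO vehicle; cytotoxicity annotated from phase-contrast morphology.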
# [2] = read-out: HMG-CoA synthase (HMGCS2), HMGCS2 (gene 3158); assay: CLD_HMGCS2_48hr: CellzDirect (CLD) Gene Expression Assay for HMG-CoA synthase (HMGCS2) at 48 hours (AID 2283711)
# Method in brief: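 mRNA induction read by qNPA chemiluminescence, 48 h after dosing. Cultured primary human liver cells (two donor preparations) received fresh compound daily over two days against 0.2% DMSO vehicle; morphology-based cytotoxicity noted alongside.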
# [3] = STM_H9_OrnCyssISnorm_ratio: Stemina devTOX quickPredict H9 human embryonic stem cell (hESC)-based Assay for Ornithine (ORN):Cystine (CYSS) Ratio (AID 2283714)
# Method in brief: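 UPLC-HRMS of spent media: ORN/CYSS ratio of internal-standard-normalized percentages, DMSO (0.1%) baseline. Pluripotent H9 hESCs, 72h exposure, daily re-dosing with fresh media; last 24h media collected.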
# [4] = Tanguay_ZF_120hpf_ActivityScore_legacy: (Legacy) Oregon State University Tanguay Lab 120 Hour Post-fertilization zebrafish Assay Score for Activity (AID 2283742);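 on AC50: dechorionated Tropical 5D wild-type zebrafish embryos held singly per well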
# Method in brief: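 Dechorionated 5D embryos, one per well, static exposure 6–120 hpf, 28C, sealed and dark; final DMSO 0.64% (vol/vol). Brightfield binary scoring of mortality plus 18 endpoints; gain-of-signal fit versus DMSO baseline.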
structure (smiles),measurement,setting,value
COP(=S)(OC)Oc1ccc(SC)c(C)c1,AC50,[1],inconclusive: 20 µM
same,AC50,[2],inconclusive: 20 µM
COP(N)(=O)SC (stereo not given),outcome,[1],inactive
same,outcome,[2],inactive
OC(c1ccc(Cl)cc1)(c1ccc(Cl)cc1)C(Cl)(Cl)Cl,outcome,[1],inactive
same,AC50,[2],inconclusive: 20 µM
COC(=O)c1ccccc1CS(=O)(=O)NC(=O)Nc1nc(OC)cc(OC)n1,AC50,[1],inconclusive: 20 µM
same,AC50,[2],inconclusive: 0.00109 µM
CO/C=C(/C(=O)OC)c1ccccc1Oc1cc(Oc2ccccc2C#N)ncn1,AC50,[1],inconclusive: 0.0187 µM
same,AC50,[2],inconclusive: 30.7 µM
same,outcome,[3],inactive
CC1(C)C(C=C(Cl)Cl)C1C(=O)OC(C#N)c1ccc(F)c(Oc2ccccc2)c1 (stereo not given),outcome,[2],inactive
C=CC1(C)OC(=O)N(c2cc(Cl)cc(Cl)c2)C1=O (stereo not given),AC50,[2],inconclusive: 0.0814 µM
CCC(C)c1cc([N+](=O)[O-])cc([N+](=O)[O-])c1O (stereo not given),AC50,[4],active: 0.346 µM
O=C1CCCO1,outcome,[4],inactive

# Reprinted at random: two entries already listed.
structure (smiles),measurement,setting,value
COC(=O)c1ccccc1CS(=O)(=O)NC(=O)Nc1nc(OC)cc(OC)n1,AC50,[2],inconclusive: 0.00109 µM
CO/C=C(/C(=O)OC)c1ccccc1Oc1cc(Oc2ccccc2C#N)ncn1,AC50,[2],inconclusive: 30.7 µM
